Data as given in patent US12054498B2, “Heteroaromatic macrocyclic ether chemotherapeutic agents” (Nuvalent, Inc., priority 2020, dated 2024).
The structures given here were assigned with low confidence; some may be wrong.

Sequences of proteins named here, by UniProt entry; tags and fusion partners are left off. A change or cut given only in a name is not applied to a line headed by its entry. A line that says so, or that is headed by a name, gives the form on record, which may keep a tag or linker. Residues count along the entry.
UniProt Q9UM73, 1116-1392 limits assumed: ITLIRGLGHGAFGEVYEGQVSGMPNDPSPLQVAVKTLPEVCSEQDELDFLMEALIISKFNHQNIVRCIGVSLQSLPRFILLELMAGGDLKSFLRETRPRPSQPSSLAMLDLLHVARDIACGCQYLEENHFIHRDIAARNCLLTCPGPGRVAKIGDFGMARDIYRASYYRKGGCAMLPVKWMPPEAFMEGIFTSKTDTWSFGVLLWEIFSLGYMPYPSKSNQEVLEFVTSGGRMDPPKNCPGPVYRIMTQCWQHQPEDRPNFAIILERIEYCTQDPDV
UniProt Q9UM73, 1116-1392 L1196M/G1202R limits assumed: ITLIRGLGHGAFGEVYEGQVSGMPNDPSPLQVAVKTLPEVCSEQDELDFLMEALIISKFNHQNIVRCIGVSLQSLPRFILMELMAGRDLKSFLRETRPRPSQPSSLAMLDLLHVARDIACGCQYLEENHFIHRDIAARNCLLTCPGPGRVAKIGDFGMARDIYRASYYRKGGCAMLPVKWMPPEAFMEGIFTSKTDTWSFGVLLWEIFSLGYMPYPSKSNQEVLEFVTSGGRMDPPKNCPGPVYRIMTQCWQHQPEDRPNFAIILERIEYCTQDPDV
UniProt Q9UM73, with tags, fused parts or gaps limits assumed: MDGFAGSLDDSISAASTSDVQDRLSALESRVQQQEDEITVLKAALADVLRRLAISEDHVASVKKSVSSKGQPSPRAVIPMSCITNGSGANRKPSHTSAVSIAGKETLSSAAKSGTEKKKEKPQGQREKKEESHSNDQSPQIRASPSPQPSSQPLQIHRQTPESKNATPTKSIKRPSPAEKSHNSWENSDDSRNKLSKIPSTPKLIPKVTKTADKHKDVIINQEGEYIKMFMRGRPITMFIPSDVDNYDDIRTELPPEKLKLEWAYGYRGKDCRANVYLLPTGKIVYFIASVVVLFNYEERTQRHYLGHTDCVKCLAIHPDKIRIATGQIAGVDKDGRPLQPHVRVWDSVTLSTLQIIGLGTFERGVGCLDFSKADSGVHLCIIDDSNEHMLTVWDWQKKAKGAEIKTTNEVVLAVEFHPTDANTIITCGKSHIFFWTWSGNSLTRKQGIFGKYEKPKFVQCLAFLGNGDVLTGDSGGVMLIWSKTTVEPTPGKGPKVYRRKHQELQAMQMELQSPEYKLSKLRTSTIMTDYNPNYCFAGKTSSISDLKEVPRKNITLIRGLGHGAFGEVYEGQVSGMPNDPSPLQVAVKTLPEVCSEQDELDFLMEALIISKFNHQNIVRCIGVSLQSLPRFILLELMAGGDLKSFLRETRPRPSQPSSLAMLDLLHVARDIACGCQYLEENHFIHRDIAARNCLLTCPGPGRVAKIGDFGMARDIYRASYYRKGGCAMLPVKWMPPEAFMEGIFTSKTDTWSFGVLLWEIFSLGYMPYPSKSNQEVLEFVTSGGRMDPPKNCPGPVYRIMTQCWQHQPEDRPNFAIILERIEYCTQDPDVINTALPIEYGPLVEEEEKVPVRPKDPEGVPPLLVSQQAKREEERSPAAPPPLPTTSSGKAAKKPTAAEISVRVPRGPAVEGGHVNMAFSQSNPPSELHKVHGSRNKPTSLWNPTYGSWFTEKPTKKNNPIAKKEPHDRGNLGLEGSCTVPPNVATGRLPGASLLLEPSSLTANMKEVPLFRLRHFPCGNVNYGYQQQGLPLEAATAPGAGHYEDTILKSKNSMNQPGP
UniProt Q9UM73, with tags, fused parts or gaps G1202R/L1196M limits assumed: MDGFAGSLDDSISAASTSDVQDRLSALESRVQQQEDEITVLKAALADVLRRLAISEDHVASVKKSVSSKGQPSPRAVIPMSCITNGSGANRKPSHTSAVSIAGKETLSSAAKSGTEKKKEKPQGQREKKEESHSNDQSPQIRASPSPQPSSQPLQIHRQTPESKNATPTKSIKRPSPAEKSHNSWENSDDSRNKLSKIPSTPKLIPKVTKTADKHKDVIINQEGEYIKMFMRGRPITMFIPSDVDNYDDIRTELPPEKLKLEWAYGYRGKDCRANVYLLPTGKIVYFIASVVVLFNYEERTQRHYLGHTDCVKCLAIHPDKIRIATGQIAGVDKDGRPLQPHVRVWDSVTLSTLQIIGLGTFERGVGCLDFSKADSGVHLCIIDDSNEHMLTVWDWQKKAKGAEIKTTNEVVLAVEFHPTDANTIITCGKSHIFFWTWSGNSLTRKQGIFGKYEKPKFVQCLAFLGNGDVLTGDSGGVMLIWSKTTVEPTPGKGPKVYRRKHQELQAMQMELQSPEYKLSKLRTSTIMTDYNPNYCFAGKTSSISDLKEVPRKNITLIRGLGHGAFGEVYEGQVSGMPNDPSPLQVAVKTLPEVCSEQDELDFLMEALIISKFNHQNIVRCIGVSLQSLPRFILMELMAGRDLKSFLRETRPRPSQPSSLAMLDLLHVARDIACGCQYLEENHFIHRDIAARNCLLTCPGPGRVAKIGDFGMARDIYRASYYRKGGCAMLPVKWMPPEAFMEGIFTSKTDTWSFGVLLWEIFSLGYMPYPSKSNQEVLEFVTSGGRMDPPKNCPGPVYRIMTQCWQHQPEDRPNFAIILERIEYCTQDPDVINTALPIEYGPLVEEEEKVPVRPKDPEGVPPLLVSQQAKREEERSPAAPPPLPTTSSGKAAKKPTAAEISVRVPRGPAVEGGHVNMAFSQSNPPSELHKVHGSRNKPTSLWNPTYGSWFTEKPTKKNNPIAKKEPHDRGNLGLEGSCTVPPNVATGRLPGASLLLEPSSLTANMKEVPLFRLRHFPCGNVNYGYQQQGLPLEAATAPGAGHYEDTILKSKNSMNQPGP
UniProt P08922, 1883-2347 limits assumed: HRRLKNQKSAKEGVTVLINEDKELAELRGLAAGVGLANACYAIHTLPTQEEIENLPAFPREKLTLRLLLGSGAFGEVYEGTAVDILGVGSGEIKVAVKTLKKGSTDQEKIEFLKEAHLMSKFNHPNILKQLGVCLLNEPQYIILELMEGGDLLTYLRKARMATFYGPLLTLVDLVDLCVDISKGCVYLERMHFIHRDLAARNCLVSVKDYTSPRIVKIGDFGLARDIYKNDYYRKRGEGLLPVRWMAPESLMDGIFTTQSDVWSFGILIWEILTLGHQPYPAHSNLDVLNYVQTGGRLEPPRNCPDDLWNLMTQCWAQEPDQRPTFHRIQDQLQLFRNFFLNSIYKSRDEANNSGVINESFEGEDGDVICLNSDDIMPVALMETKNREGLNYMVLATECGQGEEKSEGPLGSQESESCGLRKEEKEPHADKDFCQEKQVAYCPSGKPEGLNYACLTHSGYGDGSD
UniProt P08922, 1945-2222 limits assumed: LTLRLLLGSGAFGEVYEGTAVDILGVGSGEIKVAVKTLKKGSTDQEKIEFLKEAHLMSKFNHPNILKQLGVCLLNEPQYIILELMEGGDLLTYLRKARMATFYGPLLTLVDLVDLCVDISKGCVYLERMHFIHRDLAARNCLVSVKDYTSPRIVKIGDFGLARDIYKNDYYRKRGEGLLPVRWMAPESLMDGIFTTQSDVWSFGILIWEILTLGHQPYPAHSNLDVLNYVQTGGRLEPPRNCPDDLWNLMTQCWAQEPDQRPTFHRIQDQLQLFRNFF
UniProt P08922, 1883-2347 G2032R limits assumed: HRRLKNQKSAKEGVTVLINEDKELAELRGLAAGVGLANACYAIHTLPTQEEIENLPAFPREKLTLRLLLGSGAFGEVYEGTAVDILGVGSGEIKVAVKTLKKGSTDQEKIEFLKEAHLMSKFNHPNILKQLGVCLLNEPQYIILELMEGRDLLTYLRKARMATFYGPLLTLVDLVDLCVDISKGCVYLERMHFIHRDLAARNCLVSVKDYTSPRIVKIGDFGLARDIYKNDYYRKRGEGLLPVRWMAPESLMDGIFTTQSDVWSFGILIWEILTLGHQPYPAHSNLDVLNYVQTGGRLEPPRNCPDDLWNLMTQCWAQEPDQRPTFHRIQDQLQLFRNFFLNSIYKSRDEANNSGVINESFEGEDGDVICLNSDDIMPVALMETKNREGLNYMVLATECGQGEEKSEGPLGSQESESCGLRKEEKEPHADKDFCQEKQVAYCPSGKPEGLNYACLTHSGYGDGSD
UniProt P08922, 1945-2222 G2032R limits assumed: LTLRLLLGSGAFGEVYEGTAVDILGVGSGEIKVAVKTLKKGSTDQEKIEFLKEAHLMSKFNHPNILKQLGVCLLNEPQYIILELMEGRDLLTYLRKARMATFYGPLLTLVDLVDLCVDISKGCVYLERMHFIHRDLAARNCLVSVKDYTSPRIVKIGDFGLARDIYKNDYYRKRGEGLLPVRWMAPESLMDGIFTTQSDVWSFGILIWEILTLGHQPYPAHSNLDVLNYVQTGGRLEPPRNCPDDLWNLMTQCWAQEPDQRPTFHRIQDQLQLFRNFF
UniProt P04629, 510-781 limits assumed: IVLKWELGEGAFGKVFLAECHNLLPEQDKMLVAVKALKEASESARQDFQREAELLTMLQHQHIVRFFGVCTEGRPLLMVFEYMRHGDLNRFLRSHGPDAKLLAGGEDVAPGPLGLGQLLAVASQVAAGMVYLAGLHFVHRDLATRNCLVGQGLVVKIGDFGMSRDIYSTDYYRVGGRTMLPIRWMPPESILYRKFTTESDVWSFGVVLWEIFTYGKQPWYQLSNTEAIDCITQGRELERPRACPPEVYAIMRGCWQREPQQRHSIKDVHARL
UniProt P04629, 510-796 limits assumed: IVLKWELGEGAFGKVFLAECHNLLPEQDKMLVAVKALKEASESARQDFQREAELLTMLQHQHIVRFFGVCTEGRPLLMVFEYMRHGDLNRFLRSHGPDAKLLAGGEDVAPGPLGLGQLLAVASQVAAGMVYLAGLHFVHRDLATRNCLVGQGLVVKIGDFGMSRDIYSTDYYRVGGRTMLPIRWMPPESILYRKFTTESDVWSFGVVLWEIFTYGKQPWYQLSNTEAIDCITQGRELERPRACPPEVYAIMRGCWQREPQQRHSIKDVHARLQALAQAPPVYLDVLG

How the values were obtained:
ALK-wt = ALK-wt (Homo sapiens, UniProt Q9UM73); experiment: Biochemical kinase assay, ALK-wt kinase domain; conditions: read-out: ALK-wt Ki^app; apparent inhibitory constant, Morrison equation; ATP 2 mM in substrate solution
ALK L1196M/G1202R = ALK L1196M/G1202R (Homo sapiens, UniProt Q9UM73, G1202R/L1196M); experiment: Biochemical kinase assay, ALK L1196M/G1202R kinase domain; conditions: read-out: ALK-L1196M-G1202R Ki^app; apparent inhibitory constant, Morrison equation; ATP 2 mM in substrate solution
ROS1-wt = ROS1-wt (Homo sapiens, UniProt P08922); experiment: Biochemical kinase assay, ROS1-wt kinase domain; conditions: read-out: ROS1-wt Ki^app; apparent inhibitory constant, Morrison equation; ATP 2 mM in substrate solution
ROS1-G2032R = ROS1-G2032R (Homo sapiens, UniProt P08922, G2032R); experiment: Biochemical kinase assay, ROS1-G2032R kinase domain; conditions: read-out: ROS1-G2032R Ki^app; apparent inhibitory constant, Morrison equation; ATP 2 mM in substrate solution
TRKA-wt = TRKA-wt (Homo sapiens, UniProt P04629); experiment: Biochemical kinase assay, TRKA-wt kinase domain; conditions: read-out: TRKA-wt Ki^app; apparent inhibitory constant, Morrison equation; ATP 2 mM in substrate solution
[1] = biological target: Ba/F3 cells CD74-ROS1 wild-type (wt) (Homo sapiens, UniProt P08922); experiment: Ba/F3 cell proliferation assay, CD74-ROS1 wild-type; format: cell-based; conditions: read-out: CD74-ROS1-wt IC50, 72 hours, CellTiter-Glo
[2] = biological target: Ba/F3 cells CD74-ROS1 G2032R (Homo sapiens, UniProt P08922, G2032R); experiment: Ba/F3 cell proliferation assay, CD74-ROS1 G2032R; format: cell-based; conditions: read-out: CD74-ROS1-G2032R IC50, 72 hours, CellTiter-Glo
[3] = biological target: Ba/F3 cells EML4-ALK wt (variant 1) (Homo sapiens, UniProt Q9UM73); experiment: Ba/F3 cell proliferation assay, EML4-ALK wt (variant 1); conditions: read-out: EML4-ALK-wt IC50, 72 hours, CellTiter-Glo
[4] = biological target: Ba/F3 cells EML4-ALK L1196M/G1202R (variant 1) (Homo sapiens, UniProt Q9UM73, G1202R/L1196M); experiment: Ba/F3 cell proliferation assay, EML4-ALK L1196M/G1202R (variant 1); conditions: read-out: EML4-ALK-L1196M-G1202R IC50, 72 hours, CellTiter-Glo
Ba/F3 cells TPM3-TRKA = Ba/F3 cells TPM3-TRKA (Homo sapiens, UniProt P04629); experiment: Ba/F3 cell proliferation assay, TPM3-TRKA; conditions: read-out: TPM3-NTRK1-wt IC50, 72 hours, CellTiter-Glo
[5] = tested on: TPM3-NTRK1-wt IC50 / primary target IC50 (e.g. CD74-ROS1-wt); experiment: TRKA selectivity in Ba/F3 cells (TRKA potency divided by primary target potency)

Ki (ALK-wt): < 50 nM
Ki (ALK L1196M/G1202R): < 50 nM
Ki (ROS1-wt): < 50 nM
Ki (ROS1-G2032R): < 50 nM
Ki (TRKA-wt): > 500 nM
IC50 [1]: 0.1 to 50 nM
IC50 [2]: 0.1 to 50 nM
IC50 [3]: 0.1 to 50 nM
IC50 [4]: 0.1 to 50 nM
IC50 (Ba/F3 cells TPM3-TRKA): > 500 nM
SMILES: Cc1nn(CC2CC2)c2c1Cc1nn(C)nc1-c1ccc(F)cc1[C@@H](C)Oc1nc-2cnc1N
TPM3-NTRK1-wt/CD74-ROS1-G2032R selectivity ratio ([5]; TRKA potency / CD74-ROS1-G2032R potency): A (bin A for very high selectivity, ratio >30-fold)
TPM3-NTRK1-wt/CD74-ROS1-wt selectivity ratio ([5]; TRKA potency / CD74-ROS1-wt potency): A (bin A for very high selectivity, ratio >30-fold)
TPM3-NTRK1-wt/EML4-ALK-L1196M-G1202R selectivity ratio ([5]; TRKA potency / EML4-ALK-L1196M-G1202R potency): A (bin A for very high selectivity, ratio >30-fold)
TPM3-NTRK1-wt/EML4-ALK-wt selectivity ratio ([5]; TRKA potency / EML4-ALK-wt potency): A (bin A for very high selectivity, ratio >30-fold)
